Laboratory results: patent US20260209323A1 (WHITEHEAD INSTITUTE FOR BIOMEDICAL RE SEARCH, published 2026)
No constants are given. Whether binding was seen depends on the method and setting. Binding seen in cells or lysates may run through a third protein. Some entries that bind do so weakly or less than the wild type. Where a sequence is shown, tags or fusion partners need not be part of it.

T1: GSDMD-Renilla luciferase fusion (human) (UniProt P57764)
T1 sequence: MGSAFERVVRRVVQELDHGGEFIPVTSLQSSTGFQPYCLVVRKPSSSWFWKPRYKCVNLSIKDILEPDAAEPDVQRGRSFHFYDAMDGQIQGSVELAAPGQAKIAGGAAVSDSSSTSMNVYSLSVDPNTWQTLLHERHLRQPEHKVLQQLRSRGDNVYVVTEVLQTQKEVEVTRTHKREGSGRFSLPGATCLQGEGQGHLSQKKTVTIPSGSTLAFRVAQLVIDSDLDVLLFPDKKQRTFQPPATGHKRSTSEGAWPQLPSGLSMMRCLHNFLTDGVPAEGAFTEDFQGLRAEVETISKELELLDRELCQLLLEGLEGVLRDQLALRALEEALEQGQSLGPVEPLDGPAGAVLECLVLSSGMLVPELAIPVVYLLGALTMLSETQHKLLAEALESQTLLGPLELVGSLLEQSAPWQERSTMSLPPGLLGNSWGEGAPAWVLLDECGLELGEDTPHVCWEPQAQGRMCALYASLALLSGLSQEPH

B1: VHHGSDMD-5 (VHH)
VHH: QVQLVETGGGLVQPGGSLRLSCAASGFVFSINPMNWYRQAPGKERELVAYISMRGSTTNYADSVKGRFIISRDNAKNTLYLQMNSLKPEDTAVYYCNAPSRSVWGQGTQVTVSS
notes: Alpaca single-domain antibody; also called VHH AK-G04; VHH-5; not shown: C-terminal HA-His tag (recombinant protein: SPR, nanoDSF, liposome assay, ELISA) or HA tag (LUMIER)
B2: VHHGSDMD-3 (VHH)
VHH: QVQLVETGGGLVQPGGSLRLSCAASGFTLDIYNMGWFRQAPGKEREGVSCISSRYGTSTYYADSVKGRFTISRDNAKNTVYLQMNNLKPEDTAVYYCATVSWRFTTNQDVCLTPSVSGYWGQGTQVTVSS
notes: Alpaca single-domain antibody; One entry is used for all tag variants; also called VHH AK-H12; VHH-3; not shown: C-terminal tag that differs by assay: LPETG-His (recombinant protein: SPR, nanoDSF, liposome assay), HA-His6 (ELISA), HA
B3: VHHGSDMD-1 (VHH)
VHH: QVQLVESGGALVQPGGSLRLSCSASGFTFSKYLMSWYRQAPGKERELVATITTAGGNTNYADSVKGRFTISRDNAKNTVYLQMNSLKPEDTAVYYCKASGGTIRTVNETYWGQGTQVTVSS
notes: Alpaca single-domain antibody; One entry is used for all tag variants; also called VHH AK-A04; VHH-1; not shown: C-terminal tag that differs by assay: LPETG-His (recombinant protein: SPR, nanoDSF, liposome assay), HA-His6 (ELISA), HA

The binders below were run against T1, GSDMD-Renilla luciferase fusion (human) (assay: LUMIER, co-immunoprecipitation of GSDMD-Renilla with VHH-HA from HEK293T lysates).

Row | Binder | binding
1 | B1 | binds
2 | B2 | binds
3 | B3 | binds
